B1: SPAM1-EPQI: C-terminally truncated human PH20, precursor 480 aa (SEQ ID NO:20), mature 445 aa (SEQ ID NO:72) (protein, listed as Homo sapiens)
chain 1: MGVLKFKHIFFRSFVKSSGVSQIVFTFLLIPCCLTLNFRAPPVIPNVPFLWAWNAPSEFCLGKFDEPLDMSLFSFIGSPRINATGQGVTIFYVDRLGYYPYIDSITGVTVNGGIPQKISLQDHLDKAKKDITFYMPVDNLGMAVIDWEEWRPTWARNWKPKDVYKNRSIELVQQQNVQLSLTEATEKAKQEFEKAGKDFLVETIKLGKLLRPNHLWGYYLFPDCYNHHYKKPGYNGSCFNVEIKRNDDLSWLWNESTALYPSIYLNTQQSPVAATLYVRNRVREAIRVSKIPDAKSPLPVFAYTRIVFTDQVLKFLSQDELVYTFGETVALGASGIVIWGTLSIMRSMKSCLLLDNYMETILNPYIINVTLAAKMCSQVLCQEQGVCIRKNWNSSDYLHLNPDNFAIQLEKGGKFTVRGKPTLEDLEQFSEKFYCSCYSTLSCKEKADVKDTDAVDVCIADGVCIDAFLKPPMETEEPQI
chain 2: LNFRAPPVIPNVPFLWAWNAPSEFCLGKFDEPLDMSLFSFIGSPRINATGQGVTIFYVDRLGYYPYIDSITGVTVNGGIPQKISLQDHLDKAKKDITFYMPVDNLGMAVIDWEEWRPTWARNWKPKDVYKNRSIELVQQQNVQLSLTEATEKAKQEFEKAGKDFLVETIKLGKLLRPNHLWGYYLFPDCYNHHYKKPGYNGSCFNVEIKRNDDLSWLWNESTALYPSIYLNTQQSPVAATLYVRNRVREAIRVSKIPDAKSPLPVFAYTRIVFTDQVLKFLSQDELVYTFGETVALGASGIVIWGTLSIMRSMKSCLLLDNYMETILNPYIINVTLAAKMCSQVLCQEQGVCIRKNWNSSDYLHLNPDNFAIQLEKGGKFTVRGKPTLEDLEQFSEKFYCSCYSTLSCKEKADVKDTDAVDVCIADGVCIDAFLKPPMETEEPQI
modifications: HuPH20 precursor 1-480; Mature HuPH20 36-480
B2: SPAM1-PQIF: C-terminally truncated human PH20, precursor 481 aa (SEQ ID NO:19), mature 446 aa (SEQ ID NO:71) (protein, listed as Homo sapiens)
chain 1: MGVLKFKHIFFRSFVKSSGVSQIVFTFLLIPCCLTLNFRAPPVIPNVPFLWAWNAPSEFCLGKFDEPLDMSLFSFIGSPRINATGQGVTIFYVDRLGYYPYIDSITGVTVNGGIPQKISLQDHLDKAKKDITFYMPVDNLGMAVIDWEEWRPTWARNWKPKDVYKNRSIELVQQQNVQLSLTEATEKAKQEFEKAGKDFLVETIKLGKLLRPNHLWGYYLFPDCYNHHYKKPGYNGSCFNVEIKRNDDLSWLWNESTALYPSIYLNTQQSPVAATLYVRNRVREAIRVSKIPDAKSPLPVFAYTRIVFTDQVLKFLSQDELVYTFGETVALGASGIVIWGTLSIMRSMKSCLLLDNYMETILNPYIINVTLAAKMCSQVLCQEQGVCIRKNWNSSDYLHLNPDNFAIQLEKGGKFTVRGKPTLEDLEQFSEKFYCSCYSTLSCKEKADVKDTDAVDVCIADGVCIDAFLKPPMETEEPQIF
chain 2: LNFRAPPVIPNVPFLWAWNAPSEFCLGKFDEPLDMSLFSFIGSPRINATGQGVTIFYVDRLGYYPYIDSITGVTVNGGIPQKISLQDHLDKAKKDITFYMPVDNLGMAVIDWEEWRPTWARNWKPKDVYKNRSIELVQQQNVQLSLTEATEKAKQEFEKAGKDFLVETIKLGKLLRPNHLWGYYLFPDCYNHHYKKPGYNGSCFNVEIKRNDDLSWLWNESTALYPSIYLNTQQSPVAATLYVRNRVREAIRVSKIPDAKSPLPVFAYTRIVFTDQVLKFLSQDELVYTFGETVALGASGIVIWGTLSIMRSMKSCLLLDNYMETILNPYIINVTLAAKMCSQVLCQEQGVCIRKNWNSSDYLHLNPDNFAIQLEKGGKFTVRGKPTLEDLEQFSEKFYCSCYSTLSCKEKADVKDTDAVDVCIADGVCIDAFLKPPMETEEPQIF
modifications: HuPH20 precursor 1-481; Mature HuPH20 36-481
B3: SPAM1-EEPQ: C-terminally truncated human PH20, precursor 479 aa (SEQ ID NO:21), mature 444 aa (SEQ ID NO:73) (protein, listed as Homo sapiens)
chain 1: MGVLKFKHIFFRSFVKSSGVSQIVFTFLLIPCCLTLNFRAPPVIPNVPFLWAWNAPSEFCLGKFDEPLDMSLFSFIGSPRINATGQGVTIFYVDRLGYYPYIDSITGVTVNGGIPQKISLQDHLDKAKKDITFYMPVDNLGMAVIDWEEWRPTWARNWKPKDVYKNRSIELVQQQNVQLSLTEATEKAKQEFEKAGKDFLVETIKLGKLLRPNHLWGYYLFPDCYNHHYKKPGYNGSCFNVEIKRNDDLSWLWNESTALYPSIYLNTQQSPVAATLYVRNRVREAIRVSKIPDAKSPLPVFAYTRIVFTDQVLKFLSQDELVYTFGETVALGASGIVIWGTLSIMRSMKSCLLLDNYMETILNPYIINVTLAAKMCSQVLCQEQGVCIRKNWNSSDYLHLNPDNFAIQLEKGGKFTVRGKPTLEDLEQFSEKFYCSCYSTLSCKEKADVKDTDAVDVCIADGVCIDAFLKPPMETEEPQ
chain 2: B3 chain 1
modifications: HuPH20 precursor 1-479; Mature HuPH20 36-479
B4: SPAM1-QIFY: C-terminally truncated human PH20, precursor 482 aa (SEQ ID NO:18), mature 447 aa (SEQ ID NO:70) (protein, listed as Homo sapiens)
chain 1: MGVLKFKHIFFRSFVKSSGVSQIVFTFLLIPCCLTLNFRAPPVIPNVPFLWAWNAPSEFCLGKFDEPLDMSLFSFIGSPRINATGQGVTIFYVDRLGYYPYIDSITGVTVNGGIPQKISLQDHLDKAKKDITFYMPVDNLGMAVIDWEEWRPTWARNWKPKDVYKNRSIELVQQQNVQLSLTEATEKAKQEFEKAGKDFLVETIKLGKLLRPNHLWGYYLFPDCYNHHYKKPGYNGSCFNVEIKRNDDLSWLWNESTALYPSIYLNTQQSPVAATLYVRNRVREAIRVSKIPDAKSPLPVFAYTRIVFTDQVLKFLSQDELVYTFGETVALGASGIVIWGTLSIMRSMKSCLLLDNYMETILNPYIINVTLAAKMCSQVLCQEQGVCIRKNWNSSDYLHLNPDNFAIQLEKGGKFTVRGKPTLEDLEQFSEKFYCSCYSTLSCKEKADVKDTDAVDVCIADGVCIDAFLKPPMETEEPQIFY
chain 2: LNFRAPPVIPNVPFLWAWNAPSEFCLGKFDEPLDMSLFSFIGSPRINATGQGVTIFYVDRLGYYPYIDSITGVTVNGGIPQKISLQDHLDKAKKDITFYMPVDNLGMAVIDWEEWRPTWARNWKPKDVYKNRSIELVQQQNVQLSLTEATEKAKQEFEKAGKDFLVETIKLGKLLRPNHLWGYYLFPDCYNHHYKKPGYNGSCFNVEIKRNDDLSWLWNESTALYPSIYLNTQQSPVAATLYVRNRVREAIRVSKIPDAKSPLPVFAYTRIVFTDQVLKFLSQDELVYTFGETVALGASGIVIWGTLSIMRSMKSCLLLDNYMETILNPYIINVTLAAKMCSQVLCQEQGVCIRKNWNSSDYLHLNPDNFAIQLEKGGKFTVRGKPTLEDLEQFSEKFYCSCYSTLSCKEKADVKDTDAVDVCIADGVCIDAFLKPPMETEEPQIFY
modifications: HuPH20 precursor 1-482; Mature HuPH20 36-482

These molecules were tested on CHO-S cells (assay: Western blot analysis of PH20 expression in media and cells after transient expression). Details: band at approximately 66 kDa.
Type: cell-based, Chinese Hamster
Summary of the method: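 CHO-S cells were transiently transfected with mutant PH20-HZ24 plasmids using GeneJuice and expressed for 48-72 h at 37 °C, 5% CO2. Media and cells were harvested separately, with PI-PLC treatment used to release GPI-anchored protein. Non-reduced samples were blotted with rabbit anti-PH20 (0.5 μg/mL), and a band near 66 kDa was scored as PH20.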

Protein Expression, YES:
B1
B2
B3
B4

From patent US9284543B2, “Neutral active soluble truncated PH20 polypeptides and uses thereof” (Halozyme, Inc., priority 2008, dated 2016)
